Results as given in publication PMC4855656.
These are yes or no findings as the source states them, for the method shown. Binding seen in cells or lysates may run through a third protein.

The chains behind the UniProt entries cited, without tags or fusion partners.
UniProt Q07820: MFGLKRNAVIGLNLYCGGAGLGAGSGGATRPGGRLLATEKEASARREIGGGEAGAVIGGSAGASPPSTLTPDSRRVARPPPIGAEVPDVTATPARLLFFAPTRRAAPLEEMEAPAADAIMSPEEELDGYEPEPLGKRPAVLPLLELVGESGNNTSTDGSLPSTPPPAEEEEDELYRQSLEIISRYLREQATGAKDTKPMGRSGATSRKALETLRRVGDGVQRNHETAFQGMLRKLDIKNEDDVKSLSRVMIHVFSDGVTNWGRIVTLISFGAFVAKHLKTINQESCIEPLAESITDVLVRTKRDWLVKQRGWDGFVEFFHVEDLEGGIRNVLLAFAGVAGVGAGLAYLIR

Target: T1, BAD (human (endogenous in B-ALL cells)) (UniProt Q92934)
T1 sequence: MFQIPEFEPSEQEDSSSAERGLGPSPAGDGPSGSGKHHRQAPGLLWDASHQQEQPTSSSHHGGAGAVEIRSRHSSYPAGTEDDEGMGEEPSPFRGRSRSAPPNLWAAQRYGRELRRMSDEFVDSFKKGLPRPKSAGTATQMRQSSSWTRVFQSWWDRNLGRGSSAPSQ
Experiment: co-IP; endogenous BAD precipitated with anti-BAD (C-7) from CHAPS lysates of B-ALL cells at 4 °C, protein G-agarose, blots for BCL-2, BCL-XL, MCL-1; cells with or without trametinib

binding: no binding
Substance: MCL-1 (from UniProt Q07820 1-350)
